From patent US20060234909A1 (priority 2003, published 2006)

What was measured:
[1] = general procedure: Fmoc solid-phase peptide synthesis; Wang resin (4-alkoxybenzyl alcohol resin); 2-Cl-trityl resin
[2] = general procedure: Fmoc solid-phase peptide synthesis; Fmoc-Lys(Z)-Wang resin; conditions: whole synthesis, scale 0.25 mmol
[3] = general procedure: Fmoc solid-phase peptide synthesis; Fmoc-Arg(pbf)-Wang resin; conditions: whole synthesis, scale 0.25 mmol
[4] = general procedure: Fmoc solid-phase peptide synthesis; Fmoc-Gly-Wang resin; conditions: whole synthesis, scale 0.25 mmol
[5] = general procedure: Fmoc solid-phase peptide synthesis; H-Lys(Boc)-2-Cl-trityl resin; conditions: whole synthesis, scale 0.25 mmol
[6] = whole synthesis, scale of the general procedure 0.25 mmol

Ac-E(Bzl)YIYGSFK(CBz)-PEG(13)-10Ca-PXL (EYIYGSFK)
final purity (method not given) ([1]; conjugation step): 90%

Ac-E(OBz1)YIYGSFK(Z)-OH
isolated mass [2]: an average 85 mg
final purity (method not given) [1, 6]: >95%
isolated yield [1, 6]: 26.7%

Ac-EYIFGSFK-PEG(13)-10Ca-PXL x TFA (N-acetyl, PEG13, paclitaxel conjugate)
final purity (method not given) ([1]; conjugation step, TFA): 94%

Ac-EYIYGSFK(CBz)-PEG(13)-10Ca-PXL (N-acetyl, CBz, PEG13, paclitaxel conjugate)
final purity (method not given) ([1]; conjugation step): 95%

Ac-EYIYGSFR-PEG(13)-10Ca-PXL (N-acetyl, PEG13, paclitaxel conjugate)
final purity (method not given) ([1]; conjugation step): 88%

Ac-RPRTSSF-PEG(13)-10Ca-PXL x 2TFA (N-acetyl; PEG(13) linker; paclitaxel conjugate)
final purity (method not given) ([1]; conjugation step, 2TFA): 98%

Ac-RSRTSSF-PEG(13)-10Ca-PXL x 2TFA (N-acetyl; PEG(13) linker; paclitaxel conjugate)
final purity (method not given) ([1]; conjugation step, 2TFA): 99%

Ac-YIYGSFK-PEG(13)-10Ca-PXL x TFA (N-acetyl; PEG(13) linker; paclitaxel conjugate)
final purity (method not given) ([1]; conjugation step, TFA): 97%

Ac-YIYGSFR-PEG(13)-10Ca-PXL x TFA (N-acetyl; PEG(13) linker; paclitaxel conjugate)
final purity (method not given) ([1]; conjugation step, TFA): 98%

BOC-RPRTSSF-PEG(13)-10Ca-PXL x 2TFA (N-BOC; PEG(13) linker; paclitaxel conjugate)
final purity (method not given) ([1]; conjugation step, 2TFA): 98%

CBz-GIYWHHY-ALK(6)-7Ca-PXL
final purity (method not given) ([1]; conjugation step): >95%

CBz-RPRTSSF-PEG(13)-10Ca-PXL x 2TFA (N-CBz; PEG(13) linker; paclitaxel conjugate)
final purity (method not given) ([1]; conjugation step, 2TFA): 99%

CBz-YIYGSFK(CBz)-ALK(6)-10Es-PXL (N-CBz; CBz side chain; alkyl linker; paclitaxel conjugate)
final purity (method not given) ([1]; conjugation step): >95%

H-GIYWHHY-ALK(5)-7Es-PXL
final purity (method not given) ([1]; conjugation step): >90%

H-GIYWHHY-ALK(6)-7Ca-PXL x HCl
final purity (method not given) ([1]; conjugation step, HCl): >90%

H-YIYGSFK-ALK(6)-10Es-PXL x 2 HCl (alkyl linker; paclitaxel ester conjugate)
final purity (method not given) ([1]; conjugation step, 2 HCl): >95%

HO—RFSGYIY—NHPv
final purity (method not given) [1, 6]: >95%
isolated yield [1, 6]: 60.7%
isolated mass [3]: an average 150 mg

Pv-ARDIKYD-PEG(13)-10Ca-PXL x 2TFA
final purity (method not given) ([1]; conjugation step, 2TFA): 94%

Pv-E(Bzl)YIYGSFK(CBz)-PEG(13)-10Ca-PXL x TFA (EYIYGSFK)
final purity (method not given) ([1]; conjugation step, TFA): 95%

Pv-EYIYGSFR-PEG(13)-10Ca-PXL (N-terminal Pv, PEG(13) linker, paclitaxel conjugate)
final purity (method not given) ([1]; conjugation step): 98%

Pv-GRPRAAAFAEG-PEG(13)-10Ca-PXL x 2TFA (N-terminal Pv, PEG(13) linker, paclitaxel conjugate)
final purity (method not given) ([1]; conjugation step, 2TFA): 95%

Pv-GRPRTSSFAE(Bzl)G-PEG(13)-10Ca-PXL x 2TFA (GRPRTSSFAEG)
final purity (method not given) ([1]; conjugation step, 2TFA): 95%

Pv-GRPRTSSFAE(OBz1)G-OH
final purity (method not given) [1, 6]: >95%
isolated yield [1, 6]: 26.0%
isolated mass [4]: 87 mg

Pv-GRPRTSSFAE(Odmab)G-OH
final purity (method not given) [1, 6]: 90%
isolated yield [1, 6]: 12.6%
isolated mass [4]: 49 mg

Pv-GRSRTSSFAEG-PEG(13)-10Ca-PXL x 2TFA (N-terminal Pv, PEG(13) linker, paclitaxel conjugate)
final purity (method not given) ([1]; conjugation step, 2TFA): 99%

Pv-RLVAYE(Bzl)GYV-PEG(13)-10Ca-PXL x TFA
final purity (method not given) ([1]; conjugation step, TFA): 99%

Pv-RLVAYEGYV-PEG(13)-10Ca-PXL (N-terminal Pv, PEG(13) linker, paclitaxel conjugate)
final purity (method not given) ([1]; conjugation step): 95%

Pv-RSRKESY-PEG(13)-10Ca-PXL x 2TFA (N-terminal Pv, PEG(13) linker, paclitaxel conjugate)
final purity (method not given) ([1]; conjugation step, 2TFA): 99%

Pv-RSRTSSFAEG-PEG(13)-10Ca-PXL x 2TFA (N-terminal Pv, PEG(13) linker, paclitaxel conjugate)
final purity (method not given) ([1]; conjugation step, 2TFA): 93%

Pv-YIFGSFR-PEG(13)-10Ca-PXL x TFA (N-terminal Pv, PEG(13) linker, paclitaxel conjugate)
final purity (method not given) ([1]; conjugation step, TFA): 98%

Pv-YIYGSFR-PEG(13)-10Ca-PXL x TFA
final purity (method not given) ([1]; conjugation step, TFA, run 1): >95%
final purity (method not given) ([1]; conjugation step, TFA, run 2): 91%
final purity (method not given) ([1]; conjugation step, TFA, run 3): 95%

Z-YIYGSFK(B)-OH
isolated mass [5]: an average 162 mg
final purity (method not given) [1, 6]: >95%
isolated yield [1, 6]: 58.4%
